Experimental data as given in the supplement of paper PMC7666118.
The list shows a part of the results.

Sequences of proteins named here, by UniProt entry; tags and fusion partners are left off. A change or cut given only in a name is not applied to a line headed by its entry.
UniProt Q15005: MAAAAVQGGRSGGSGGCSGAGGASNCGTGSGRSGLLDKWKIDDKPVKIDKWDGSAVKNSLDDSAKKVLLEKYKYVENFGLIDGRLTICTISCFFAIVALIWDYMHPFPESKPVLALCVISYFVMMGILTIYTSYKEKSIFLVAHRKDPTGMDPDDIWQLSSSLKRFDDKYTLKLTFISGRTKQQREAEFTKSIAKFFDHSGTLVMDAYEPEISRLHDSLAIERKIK
UniProt P61009: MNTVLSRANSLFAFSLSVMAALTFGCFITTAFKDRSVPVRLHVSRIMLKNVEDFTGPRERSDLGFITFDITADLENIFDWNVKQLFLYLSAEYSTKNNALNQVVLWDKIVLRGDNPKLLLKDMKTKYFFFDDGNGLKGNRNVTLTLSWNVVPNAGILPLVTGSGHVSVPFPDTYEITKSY
UniProt Q8TAQ2, whole entry: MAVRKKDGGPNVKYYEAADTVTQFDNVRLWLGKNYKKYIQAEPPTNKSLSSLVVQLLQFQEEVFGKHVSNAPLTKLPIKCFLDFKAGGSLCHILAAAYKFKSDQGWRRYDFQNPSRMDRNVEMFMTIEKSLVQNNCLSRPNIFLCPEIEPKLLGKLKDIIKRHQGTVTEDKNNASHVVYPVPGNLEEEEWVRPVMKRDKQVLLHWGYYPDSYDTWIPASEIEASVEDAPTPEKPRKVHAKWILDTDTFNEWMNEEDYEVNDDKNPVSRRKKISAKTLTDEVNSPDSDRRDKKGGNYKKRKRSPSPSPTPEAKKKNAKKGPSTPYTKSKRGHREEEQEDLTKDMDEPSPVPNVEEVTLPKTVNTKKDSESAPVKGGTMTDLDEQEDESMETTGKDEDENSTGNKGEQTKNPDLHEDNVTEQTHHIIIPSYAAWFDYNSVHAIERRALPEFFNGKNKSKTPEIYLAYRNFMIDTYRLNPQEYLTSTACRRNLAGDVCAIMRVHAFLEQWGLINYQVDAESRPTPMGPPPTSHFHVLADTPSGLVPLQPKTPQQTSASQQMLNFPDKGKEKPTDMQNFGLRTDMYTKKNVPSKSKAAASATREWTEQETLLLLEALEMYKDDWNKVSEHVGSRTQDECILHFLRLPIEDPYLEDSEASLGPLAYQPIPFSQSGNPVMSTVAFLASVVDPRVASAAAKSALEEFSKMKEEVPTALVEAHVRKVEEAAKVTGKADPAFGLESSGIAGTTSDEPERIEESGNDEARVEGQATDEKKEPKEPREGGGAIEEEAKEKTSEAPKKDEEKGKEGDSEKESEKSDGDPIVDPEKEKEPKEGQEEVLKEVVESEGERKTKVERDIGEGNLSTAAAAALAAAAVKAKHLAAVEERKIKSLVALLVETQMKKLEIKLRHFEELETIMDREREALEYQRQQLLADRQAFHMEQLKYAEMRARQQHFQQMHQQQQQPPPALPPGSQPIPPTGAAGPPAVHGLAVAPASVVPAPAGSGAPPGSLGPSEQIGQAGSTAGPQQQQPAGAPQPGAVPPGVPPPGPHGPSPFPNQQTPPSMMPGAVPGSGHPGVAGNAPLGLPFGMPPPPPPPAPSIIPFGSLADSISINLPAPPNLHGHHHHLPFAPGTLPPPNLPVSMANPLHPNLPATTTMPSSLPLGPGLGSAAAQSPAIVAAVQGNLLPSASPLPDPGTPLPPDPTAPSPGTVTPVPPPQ
UniProt Q15527: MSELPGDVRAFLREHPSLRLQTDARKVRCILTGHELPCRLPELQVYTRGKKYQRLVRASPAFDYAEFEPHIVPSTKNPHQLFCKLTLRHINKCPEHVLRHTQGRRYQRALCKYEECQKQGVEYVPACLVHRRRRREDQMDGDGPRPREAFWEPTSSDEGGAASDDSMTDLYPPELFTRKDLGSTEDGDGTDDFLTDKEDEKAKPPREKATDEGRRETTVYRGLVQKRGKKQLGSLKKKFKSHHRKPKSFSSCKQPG
UniProt O60264, whole entry: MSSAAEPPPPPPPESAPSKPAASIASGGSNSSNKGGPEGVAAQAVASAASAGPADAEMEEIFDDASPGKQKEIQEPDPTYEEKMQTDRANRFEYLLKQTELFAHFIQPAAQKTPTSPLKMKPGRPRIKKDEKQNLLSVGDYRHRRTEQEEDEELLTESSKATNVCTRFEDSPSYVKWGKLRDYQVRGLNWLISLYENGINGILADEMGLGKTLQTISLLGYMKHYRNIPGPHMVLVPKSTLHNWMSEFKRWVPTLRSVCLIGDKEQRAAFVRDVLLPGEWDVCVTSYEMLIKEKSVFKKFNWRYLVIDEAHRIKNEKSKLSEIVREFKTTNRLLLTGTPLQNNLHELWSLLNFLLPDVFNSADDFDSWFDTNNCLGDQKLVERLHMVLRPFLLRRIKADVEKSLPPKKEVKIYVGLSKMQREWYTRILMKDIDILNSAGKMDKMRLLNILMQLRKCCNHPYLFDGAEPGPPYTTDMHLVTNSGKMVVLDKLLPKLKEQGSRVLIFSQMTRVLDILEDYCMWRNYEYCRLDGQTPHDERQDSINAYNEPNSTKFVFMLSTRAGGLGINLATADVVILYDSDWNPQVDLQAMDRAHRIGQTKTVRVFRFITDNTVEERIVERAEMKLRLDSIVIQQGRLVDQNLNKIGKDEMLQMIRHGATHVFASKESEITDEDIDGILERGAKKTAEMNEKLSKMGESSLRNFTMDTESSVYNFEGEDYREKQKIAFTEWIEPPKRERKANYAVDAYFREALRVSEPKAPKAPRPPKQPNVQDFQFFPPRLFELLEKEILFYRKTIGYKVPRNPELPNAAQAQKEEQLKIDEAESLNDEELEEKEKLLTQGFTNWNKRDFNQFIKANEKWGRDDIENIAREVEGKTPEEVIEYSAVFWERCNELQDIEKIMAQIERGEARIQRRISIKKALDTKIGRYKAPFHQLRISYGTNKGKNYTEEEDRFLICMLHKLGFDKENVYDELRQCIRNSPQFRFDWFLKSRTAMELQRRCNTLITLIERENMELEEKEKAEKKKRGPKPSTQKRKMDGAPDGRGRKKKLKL
UniProt Q12824, whole entry: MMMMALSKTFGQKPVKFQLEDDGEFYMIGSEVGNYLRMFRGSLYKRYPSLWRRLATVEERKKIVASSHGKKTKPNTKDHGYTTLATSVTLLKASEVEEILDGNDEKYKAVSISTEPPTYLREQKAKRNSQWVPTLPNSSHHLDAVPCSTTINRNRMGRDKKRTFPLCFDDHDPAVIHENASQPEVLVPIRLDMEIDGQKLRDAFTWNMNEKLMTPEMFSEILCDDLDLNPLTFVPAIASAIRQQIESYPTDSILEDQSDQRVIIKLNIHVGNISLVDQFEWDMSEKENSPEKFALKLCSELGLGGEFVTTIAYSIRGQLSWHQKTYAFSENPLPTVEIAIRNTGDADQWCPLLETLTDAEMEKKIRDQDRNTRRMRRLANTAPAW
UniProt P62314, whole entry: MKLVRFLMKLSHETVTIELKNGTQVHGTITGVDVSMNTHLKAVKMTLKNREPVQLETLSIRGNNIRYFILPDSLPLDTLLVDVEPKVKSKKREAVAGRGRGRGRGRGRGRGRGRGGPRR
UniProt Q9UJZ1: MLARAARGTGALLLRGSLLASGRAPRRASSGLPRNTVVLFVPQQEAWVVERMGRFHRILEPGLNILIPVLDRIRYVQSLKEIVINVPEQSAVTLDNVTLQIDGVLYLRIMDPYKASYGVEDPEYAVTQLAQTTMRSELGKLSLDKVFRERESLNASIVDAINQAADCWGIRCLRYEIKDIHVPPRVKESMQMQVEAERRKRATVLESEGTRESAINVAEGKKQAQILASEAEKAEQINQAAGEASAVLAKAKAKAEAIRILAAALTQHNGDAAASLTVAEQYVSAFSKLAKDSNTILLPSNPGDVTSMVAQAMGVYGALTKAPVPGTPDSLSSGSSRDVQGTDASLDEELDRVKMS
UniProt Q96FJ0: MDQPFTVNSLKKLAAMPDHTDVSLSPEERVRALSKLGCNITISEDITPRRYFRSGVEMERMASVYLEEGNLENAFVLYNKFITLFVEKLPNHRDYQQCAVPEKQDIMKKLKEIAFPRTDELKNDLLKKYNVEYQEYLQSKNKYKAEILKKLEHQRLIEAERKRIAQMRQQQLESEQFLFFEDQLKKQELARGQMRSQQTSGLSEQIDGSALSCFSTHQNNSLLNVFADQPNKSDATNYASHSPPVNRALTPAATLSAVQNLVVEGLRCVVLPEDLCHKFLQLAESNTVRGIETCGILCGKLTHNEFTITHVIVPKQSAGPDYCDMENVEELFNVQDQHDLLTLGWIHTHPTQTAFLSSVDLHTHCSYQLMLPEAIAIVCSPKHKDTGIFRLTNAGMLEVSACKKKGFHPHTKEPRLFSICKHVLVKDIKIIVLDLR
UniProt Q9Y6J9: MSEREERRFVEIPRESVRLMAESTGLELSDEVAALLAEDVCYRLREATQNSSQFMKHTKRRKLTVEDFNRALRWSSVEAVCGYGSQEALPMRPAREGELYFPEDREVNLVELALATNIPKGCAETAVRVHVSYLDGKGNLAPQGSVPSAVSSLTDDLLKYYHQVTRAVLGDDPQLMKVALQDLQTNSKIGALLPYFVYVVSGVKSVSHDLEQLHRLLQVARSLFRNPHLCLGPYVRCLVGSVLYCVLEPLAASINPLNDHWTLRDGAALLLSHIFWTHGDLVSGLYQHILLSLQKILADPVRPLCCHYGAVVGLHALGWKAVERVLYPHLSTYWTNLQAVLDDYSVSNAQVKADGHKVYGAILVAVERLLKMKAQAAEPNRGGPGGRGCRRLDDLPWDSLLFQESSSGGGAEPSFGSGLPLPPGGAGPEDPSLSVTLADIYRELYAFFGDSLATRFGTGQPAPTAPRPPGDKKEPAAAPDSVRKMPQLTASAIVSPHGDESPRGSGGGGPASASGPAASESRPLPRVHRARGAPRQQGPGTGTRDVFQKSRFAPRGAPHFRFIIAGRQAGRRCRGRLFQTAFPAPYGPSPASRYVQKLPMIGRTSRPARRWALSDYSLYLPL
UniProt P62304, whole entry: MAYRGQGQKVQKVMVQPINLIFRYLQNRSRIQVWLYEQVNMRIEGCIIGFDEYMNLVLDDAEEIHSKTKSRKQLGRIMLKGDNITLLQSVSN
UniProt Q9Y5X1: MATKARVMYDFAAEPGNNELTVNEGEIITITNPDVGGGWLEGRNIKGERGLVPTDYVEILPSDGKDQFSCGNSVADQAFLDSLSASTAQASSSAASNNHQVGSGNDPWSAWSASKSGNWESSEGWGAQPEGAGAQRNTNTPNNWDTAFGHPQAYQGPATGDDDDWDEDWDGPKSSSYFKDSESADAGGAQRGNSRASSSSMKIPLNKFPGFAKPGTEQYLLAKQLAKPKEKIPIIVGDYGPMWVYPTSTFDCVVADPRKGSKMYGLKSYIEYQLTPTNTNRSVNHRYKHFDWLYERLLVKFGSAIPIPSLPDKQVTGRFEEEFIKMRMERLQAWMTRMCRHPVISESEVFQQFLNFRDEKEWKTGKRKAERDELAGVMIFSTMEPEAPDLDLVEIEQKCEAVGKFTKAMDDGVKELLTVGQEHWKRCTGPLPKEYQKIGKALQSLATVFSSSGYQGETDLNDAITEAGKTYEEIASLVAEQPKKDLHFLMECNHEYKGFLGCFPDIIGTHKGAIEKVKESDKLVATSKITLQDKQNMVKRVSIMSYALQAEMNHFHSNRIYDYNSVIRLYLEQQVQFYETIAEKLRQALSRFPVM
UniProt Q04837: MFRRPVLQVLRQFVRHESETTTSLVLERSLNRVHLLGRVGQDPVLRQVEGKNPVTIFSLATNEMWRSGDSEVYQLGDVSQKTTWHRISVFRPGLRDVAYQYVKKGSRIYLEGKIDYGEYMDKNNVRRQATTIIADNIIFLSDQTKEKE
UniProt O75528: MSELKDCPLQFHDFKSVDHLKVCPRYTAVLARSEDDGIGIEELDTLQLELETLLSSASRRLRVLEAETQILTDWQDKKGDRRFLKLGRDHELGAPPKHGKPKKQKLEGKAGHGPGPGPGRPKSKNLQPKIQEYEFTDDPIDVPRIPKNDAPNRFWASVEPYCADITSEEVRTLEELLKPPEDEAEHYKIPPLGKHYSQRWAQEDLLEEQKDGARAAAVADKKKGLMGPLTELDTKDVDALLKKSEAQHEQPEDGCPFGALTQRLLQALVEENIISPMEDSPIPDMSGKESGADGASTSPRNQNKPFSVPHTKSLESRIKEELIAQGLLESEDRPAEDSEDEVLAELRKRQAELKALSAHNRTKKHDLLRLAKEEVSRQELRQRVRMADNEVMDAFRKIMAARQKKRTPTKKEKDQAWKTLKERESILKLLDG
UniProt Q11206: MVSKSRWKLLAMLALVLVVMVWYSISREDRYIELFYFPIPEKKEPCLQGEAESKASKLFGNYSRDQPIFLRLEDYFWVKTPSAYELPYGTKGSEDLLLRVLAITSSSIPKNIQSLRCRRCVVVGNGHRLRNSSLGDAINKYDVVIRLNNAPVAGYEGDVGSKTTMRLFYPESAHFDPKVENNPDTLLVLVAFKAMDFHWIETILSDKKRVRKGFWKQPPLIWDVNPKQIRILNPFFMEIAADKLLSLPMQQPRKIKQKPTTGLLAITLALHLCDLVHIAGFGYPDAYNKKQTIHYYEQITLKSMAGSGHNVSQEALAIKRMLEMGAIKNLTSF

What follows are targets tested with COc1ccc(Cn2ccc3ccc(C(=O)NO)cc32)cc1 (assay: dose-dependent thermal stabilisation call (2D-TPP, DLPTP, 10% FDR) (binary (1 = stabilised)); higher = stabilised by the compound). Conditions: system: HL-60 intact cells; concentration range 0.04-10 µM.

| Target | dose-dependent thermal stabilisation call |
| --- | --- |
| TAF3 (UniProt Q5VWG9) | inactive: 0 |
| STIP1 (UniProt P31948) | inactive: 0 |
| SNX8 (UniProt Q9Y5X2) | inactive: 0 |
| SP2 (UniProt Q02086) | inactive: 0 |
| SPCS2 (UniProt Q15005) | inactive: 0 |
| SUPT16H (UniProt Q9Y5B9) | inactive: 0 |
| SPCS3 (UniProt P61009) | inactive: 0 |
| SMARCC2 (UniProt Q8TAQ2) | inactive: 0 |
| SURF2 (UniProt Q15527) | inactive: 0 |
| SMARCA5 (UniProt O60264) | inactive: 0 |
| SRF (UniProt P11831) | inactive: 0 |
| SMU1 (UniProt Q2TAY7) | inactive: 0 |
| SMARCB1 (UniProt Q12824) | inactive: 0 |
| SNRPD1 (UniProt P62314) | inactive: 0 |
| STOML2 (UniProt Q9UJZ1) | inactive: 0 |
| STAMBPL1 (UniProt Q96FJ0) | inactive: 0 |
| TAF6L (UniProt Q9Y6J9) | inactive: 0 |
| SNRPB (UniProt P14678) | inactive: 0 |
| SMCR7L (UniProt Q9NQG6) | inactive: 0 |
| SNRPE (UniProt P62304) | inactive: 0 |
| SNX9 (UniProt Q9Y5X1) | inactive: 0 |
| SSBP1 (UniProt Q04837) | inactive: 0 |
| TADA3L (UniProt O75528) | inactive: 0 |
| SPNS3 (UniProt Q6ZMD2) | inactive: 0 |
| STAT5A (UniProt P42229) | inactive: 0 |
| ST3GAL4 (UniProt Q11206) | inactive: 0 |
| STK39 (UniProt Q9UEW8) | inactive: 0 |

Quoted at random: 2 entries already listed.

| Target | dose-dependent thermal stabilisation call |
| --- | --- |
| SMARCB1 (UniProt Q12824) | inactive: 0 |
| SPNS3 (UniProt Q6ZMD2) | inactive: 0 |
